In PubChem BioAssay AID540276 (National Center for Advancing Translational Sciences (NCATS), 2011):
Values joined by “and” are separate entries in the source; they are usually repeats but may differ in a detail not shown here. Equal values may be shown once. The whole screen tested about 300,000 compounds, of which about 5,400 (1.8%) were called active. This list was built around the results that the source calls inconclusive (neither active nor inactive); the mix of calls is not that of the screen. The call rests on the fitted dose curve; tested in HEK293 cells. A potency beside an inconclusive call is a rough fit, not a confirmed value.

Test: qHTS for inhibitors of binding or entry into cells for Marburg Virus
Settings: Marburg virus pseudotyped entry inhibition, cell reporter; activity change, negative = inhibition: at 37.8 µM (top of the series) unless noted
On the % scale 0 is the no-effect control and ±100 the full control effect; potency means the concentration at half of the fitted maximal effect.

Q: Which Potency does the source give for `COc1cccc(N2CCN(C(=O)c3ccc4ccccc4c3)CC2)c1` here?
A: inconclusive: 35.5 µM [inhibitor, single point]

Q: Which Potency does the source give for `CCC(NC(=O)C1CCCO1)c1ccccc1` (centres undefined) here?
A: inconclusive: 2.24 µM [inhibitor, partial curve, poor fit]

Q: With `CCCCCCC/C=C\CCCCCCCCC(=O)O` as the compound, how does the Potency read?
A: inconclusive: 1.12 µM [inhibitor, partial curve]

Q: For `Cc1cccc(/C=N/NC(=O)C[n+]2ccccc2)c1`, which “activity change, negative = inhibition” value is on record?
A: inactive: 9.31%

Q: For `O=C(N/N=C/c1ccc2c(c1)OCO2)c1cc(-c2ccc(F)cc2)nc2ccccc12`, which Potency is on record?
A: inconclusive: 20 µM [inhibitor, single point]

Q: For `N#C/C(=C/c1cn(CC(=O)O)c2ccccc12)c1ccc(F)cc1`, which Potency is on record?
A: inconclusive: 0.112 µM [activator, full curve, poor fit]

Q: Which Potency does the source give for `N=c1ccccn1Cc1ccccc1` here?
A: inconclusive: 35.5 µM [activator, single point]

Q: Which “activity change, negative = inhibition” value does the source give for `CCc1sc(N)nc1-c1ccccc1` here?
A: inactive: 11.9%

Q: For `CCCCn1c(N)c(N(CCOC)C(=O)C2CCN(S(=O)(=O)c3ccc(F)cc3)CC2)c(=O)[nH]c1=O`, which “activity change, negative = inhibition” value is on record?
A: inactive: 18.2%

Q: Which “activity change, negative = inhibition” value does the source give for `O=C(COC(=O)Cn1cnc2ccccc21)Nc1ccc(F)c(F)c1` here?
A: inactive: -3.79%

Q: Which “activity change, negative = inhibition” value does the source give for `COc1ccc(-c2onc(C)c2-c2cscn2)c(O)c1` here?
A: inactive: 8.42% [at 46.1 µM]

Q: Which Potency does the source give for `CCC(=O)Nc1ccc(Nc2nc(C)c([N+](=O)[O-])c(Nc3ccc(NC(=O)CC)cc3)n2)cc1` here?
A: inconclusive: 15.8 µM [inhibitor, partial curve, poor fit]

Q: Which “activity change, negative = inhibition” value does the source give for `COc1ccc(-c2nnc3n2CCCCC3)cc1OC` here?
A: inactive: -2.88% [at 46.1 µM]

Q: With `Cn1c(=O)c2c(c3ccccc31)OC(=O)CC2c1ccc(C(F)(F)F)cc1` (centres undefined) as the compound, how does the “activity change, negative = inhibition” value read?
A: inactive: -2.3% [at 46.1 µM]

Q: With `O=C(NCc1ccccn1)c1cc(-c2ccncc2)nc2ccccc12` as the compound, how does the “activity change, negative = inhibition” value read?
A: inactive: 0.86%

Q: For `CCOC(=O)c1sc(N(C)C(C)=O)nc1C`, which Potency is on record?
A: inconclusive: 1.26 µM [activator, single point]

Q: For `COc1ccccc1C(=O)NCC(=O)N1CC=C(c2ccccc2)CC1`, which Potency is on record?
A: inconclusive: 11.2 µM [inhibitor, partial curve, poor fit]

Q: Which Potency does the source give for `Cc1ccc(CNc2cc(-c3nn4c(C)nnc4s3)ccc2C)s1` here?
A: inconclusive: 23.1 µM [inhibitor, single point]

Q: Which Potency does the source give for `COc1ccccc1CN=c1c([N+](=O)[O-])nn(-c2ccc3c(c2)OCCO3)n1O` here?
A: inconclusive: 0.82 µM [activator, single point]

Q: With `Cn1c(=O)c2c(-c3ccccc3)n3c(c2n(C)c1=O)C(c1ccccc1[N+](=O)[O-])Nc1ccccc1-3` (centres undefined) as the compound, how does the “activity change, negative = inhibition” value read?
A: inactive: 5.86% [at 46.1 µM]

Q: With `CCC(=O)Nc1ccc(NC(=O)CSc2nc3cc4c(cc3cc2C)CCC4)cc1` as the compound, how does the Potency read?
A: inconclusive: 10.3 µM [inhibitor, partial curve, poor fit]

Q: Which “activity change, negative = inhibition” value does the source give for `Cc1ccc(NS(=O)(=O)c2cc(C(=O)Nc3cccnc3)ccc2C)cc1` here?
A: inactive: -22.8%

Q: For `COc1ccc(O[C@H]2C=C[C@@H](c3ccccc3)O[C@H]2COC(=O)CCC(C)=NOCC[C@@H]2C=C[C@H](OC(C)=O)[C@@H](COC(C)=O)O2)cc1`, which Potency is on record?
A: inconclusive: 0.006 µM [activator, full curve, poor fit]

Q: With `Cc1ccc(S(=O)(=O)NC2=C(N3CCN(c4ccccc4F)CC3)C(=O)c3ccccc3C2=O)cc1` as the compound, how does the Potency read?
A: inactive and inconclusive: 25.1 µM [inhibitor, single point]

Q: Which Potency does the source give for `COC(=O)c1sccc1NC(=O)C1CC1` here?
A: inconclusive: 3.16 µM [inhibitor, single point]

Q: With `O=S1(=O)CCSCCN1Cc1ccc(Cl)cc1` as the compound, how does the Potency read?
A: inconclusive: 3.96 µM [activator, full curve, poor fit]

Q: With `CCc1ccc(NC(=O)C(NS(=O)(=O)c2cccs2)C(C)C)cc1` (centres undefined) as the compound, how does the “activity change, negative = inhibition” value read?
A: inactive: -35.7% [at 46.1 µM]

Q: For `O=C(NCc1cccnc1)c1ccc(Cl)c(S(=O)(=O)Nc2ccccc2C(=O)NCc2cccnc2)c1`, which Potency is on record?
A: inconclusive: 1 µM [inhibitor, full curve, poor fit]

Q: Which Potency does the source give for `CNC(=S)N1N=C(c2ccc(C)cc2)CC1c1ccc(Br)cc1` (centres undefined) here?
A: inconclusive: 18.3 µM [inhibitor, single point]

Q: With `COc1cccc(Oc2ccc(C(F)(F)F)cc2N)c1` as the compound, how does the Potency read?
A: inconclusive: 12.6 µM [activator, partial curve]

Q: For `CN(C)CC1CCC/C(=C\c2ccc(OC(=O)/C=C/c3ccc(Cl)c(Cl)c3)cc2)C1=O` (centres undefined), which Potency is on record?
A: inconclusive: 0.282 µM [activator, full curve, poor fit]

Q: For `CCOc1cc(C(=O)Nc2cc(C)on2)cc(OCC)c1OCC`, which “activity change, negative = inhibition” value is on record?
A: inactive: -14.4%

Q: For `NC(N)=NC(=O)Cc1c(Cl)cccc1Cl`, which Potency is on record?
A: inactive and inconclusive: 2.51 µM [inhibitor, full curve]

Q: With `Cc1[nH]c(N=Nc2ccccc2)nc1N=Nc1ccccc1` as the compound, how does the Potency read?
A: inconclusive: 35.5 µM [inhibitor, single point]

Q: With `Cc1ccc(CCc2nnc(SCC(=O)Nc3cc(Cl)ccc3Cl)n2-c2ccccc2)o1` as the compound, how does the Potency read?
A: inconclusive: 0.651 µM [inhibitor, partial curve, poor fit]

Q: For `CC1=Nc2cccc3cccc(c23)N1C`, which Potency is on record?
A: inconclusive: 0.184 µM [activator, single point]

Q: Which Potency does the source give for `CC(C)(C)c1cc(Cl)ccc1OCCn1ccnc1` here?
A: inconclusive: 35.5 µM [inhibitor, single point]

Q: With `COc1ccc(C=O)cc1CSc1ccccn1` as the compound, how does the “activity change, negative = inhibition” value read?
A: inactive: 5.6%

Q: With `Cc1onc(-c2ccccc2)c1C(=O)NNC(=S)NC(=O)c1ccc2c(c1)OCO2` as the compound, how does the “activity change, negative = inhibition” value read?
A: inactive: -21.5% [at 46.1 µM]

Q: With `Cc1cccc(NC(=O)c2cccc([N+](=O)[O-])c2O)c1C` as the compound, how does the Potency read?
A: inconclusive: 14.1 µM [inhibitor, single point]

Q: With `COc1ccc(/C=N/NC(=S)NCc2ccccc2)cc1OC` as the compound, how does the “activity change, negative = inhibition” value read?
A: inactive: 22.7%

Q: With `CCC(CC)NC(=O)c1ccc(Cl)cc1` as the compound, how does the Potency read?
A: inconclusive: 35.5 µM [activator, single point]

Q: For `COc1cccc(C(=O)NC2CC3CCCC(C2)N3S(=O)(=O)c2ccccc2)c1` (centres undefined), which Potency is on record?
A: inconclusive: 17.8 µM [inhibitor, partial curve, poor fit]

Q: With `COc1ccc(C)cc1NC(=O)CN(Cc1nnc(-c2ccc(Cl)cc2)o1)C1CCCC1` as the compound, how does the Potency read?
A: inconclusive: 29.1 µM [inhibitor, partial curve, poor fit]
